Results are given in words; binding and its absence hold for the method and conditions named. In cells and extracts the contact can be indirect. Some entries that bind do so weakly or less than the wild type. For part of these data: Where a sequence is shown, tags or fusion partners need not be part of it.

By UniProt entry, the sequences of proteins in these tests, tags left out.
UniProt O15379: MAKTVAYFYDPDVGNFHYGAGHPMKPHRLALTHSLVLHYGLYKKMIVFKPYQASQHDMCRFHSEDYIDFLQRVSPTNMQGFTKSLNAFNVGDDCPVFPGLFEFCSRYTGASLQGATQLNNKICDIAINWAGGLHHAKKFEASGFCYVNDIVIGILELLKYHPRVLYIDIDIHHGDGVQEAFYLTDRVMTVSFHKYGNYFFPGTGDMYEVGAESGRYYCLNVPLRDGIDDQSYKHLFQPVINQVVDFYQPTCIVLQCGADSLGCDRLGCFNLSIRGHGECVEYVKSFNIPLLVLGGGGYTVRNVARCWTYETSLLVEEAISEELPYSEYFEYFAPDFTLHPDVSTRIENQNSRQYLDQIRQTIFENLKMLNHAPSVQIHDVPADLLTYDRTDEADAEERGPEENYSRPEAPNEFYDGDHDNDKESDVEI
UniProt P31749: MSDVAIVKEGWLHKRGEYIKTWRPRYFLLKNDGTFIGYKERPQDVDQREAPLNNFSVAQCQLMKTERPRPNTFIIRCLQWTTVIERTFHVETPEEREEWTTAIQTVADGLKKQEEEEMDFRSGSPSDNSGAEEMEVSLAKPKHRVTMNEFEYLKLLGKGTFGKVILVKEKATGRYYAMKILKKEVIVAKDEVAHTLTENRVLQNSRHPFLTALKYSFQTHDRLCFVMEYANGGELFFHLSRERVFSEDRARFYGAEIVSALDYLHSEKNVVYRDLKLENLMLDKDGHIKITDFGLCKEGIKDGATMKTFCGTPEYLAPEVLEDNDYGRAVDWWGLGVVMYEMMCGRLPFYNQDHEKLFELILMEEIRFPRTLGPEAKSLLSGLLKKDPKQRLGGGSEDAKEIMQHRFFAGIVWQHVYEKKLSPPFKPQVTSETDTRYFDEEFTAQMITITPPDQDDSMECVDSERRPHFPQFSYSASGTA

In experiment [1] the target is T1, HA-XBP1u (unspliced X-box-binding protein 1, from pCMV5-HA-XBP1u) (UniProt P17861).
T1 sequence: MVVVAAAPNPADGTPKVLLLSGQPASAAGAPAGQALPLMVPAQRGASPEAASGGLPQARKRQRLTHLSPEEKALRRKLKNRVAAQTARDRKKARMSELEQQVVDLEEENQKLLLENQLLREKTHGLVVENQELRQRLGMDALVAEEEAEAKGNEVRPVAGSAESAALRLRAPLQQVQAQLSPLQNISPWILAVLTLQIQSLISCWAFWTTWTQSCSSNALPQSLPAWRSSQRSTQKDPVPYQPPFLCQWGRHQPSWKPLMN
The experiment is described as follows: co-IP; HEK293 cells co-transfected with HA-XBP1u and FLAG-HDAC3 plasmids; immunoprecipitation with anti-HA antibody, Western blot with anti-FLAG and anti-HA; 1 mg lysate per immunoprecipitation. A general note: Immunoblotting shows a protein as a band on a membrane.

For experiment [2], the target named is T2, endogenous unspliced X-box-binding protein 1 (XBP1u) (human (endogenous in HUVECs)) (UniProt P17861).
T2 sequence: T1 sequence
Briefly: co-IP; endogenous proteins; immunoprecipitation with anti-XBP1u antibody from static and disturbed flow (4 h)-treated cells, Western blot with anti-HDAC3, anti-Akt1 and anti-XBP1u; association increased by disturbed flow.

Consider “FLAG-HDAC3 (histone deacetylase 3, from pShuttle2-FLAG-HDAC3) (from UniProt O15379 1-428)”, for which the binding result in experiment [1] is “binds”.
Consider “endogenous Akt1 (from UniProt P31749 1-480)”, for which the binding result in experiment [2] is “binds”.
As for “endogenous histone deacetylase 3 (HDAC3) (from UniProt O15379 1-428)”, the binding result in experiment [2] is “binds”.

These data come from article PMC4215241.
